From patent publication US20060121449A1, “Method for selection of compounds which inhibit clonal cell growth and use thereof” (priority 2002, published 2006) come the findings set out here.

The data set deals with Ehrlich ascites tumour. Particulars: Exp 18.

Regarding `COc1cc2c(c(OC)c1OC)-c1ccc(OC)c(=O)cc1[C@@H](NC(C)=O)CC2` [Colchicine, reference compound], under “at killing”, the “organs, findings on section” value is listed as “Normal organs” and the “subcutaneous fluid, findings on section” value is 0.5 mL. The “Animal weight on section” value (at killing (mouse 1 day 14, mice 2 and 3 day 16), control 37.3) is listed as 32.8 g.
